# Data from the supplement of paper PMC10849652.
# The chains behind the UniProt entries cited, without tags or fusion partners. Where a name states a change or a piece, a line headed by the entry shows the natural chain unless it says otherwise.
# UniProt O43676, whole entry, looked up: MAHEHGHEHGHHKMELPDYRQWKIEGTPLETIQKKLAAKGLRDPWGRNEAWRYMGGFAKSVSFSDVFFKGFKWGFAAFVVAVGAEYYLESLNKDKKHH
# UniProt Q92692, whole entry, looked up: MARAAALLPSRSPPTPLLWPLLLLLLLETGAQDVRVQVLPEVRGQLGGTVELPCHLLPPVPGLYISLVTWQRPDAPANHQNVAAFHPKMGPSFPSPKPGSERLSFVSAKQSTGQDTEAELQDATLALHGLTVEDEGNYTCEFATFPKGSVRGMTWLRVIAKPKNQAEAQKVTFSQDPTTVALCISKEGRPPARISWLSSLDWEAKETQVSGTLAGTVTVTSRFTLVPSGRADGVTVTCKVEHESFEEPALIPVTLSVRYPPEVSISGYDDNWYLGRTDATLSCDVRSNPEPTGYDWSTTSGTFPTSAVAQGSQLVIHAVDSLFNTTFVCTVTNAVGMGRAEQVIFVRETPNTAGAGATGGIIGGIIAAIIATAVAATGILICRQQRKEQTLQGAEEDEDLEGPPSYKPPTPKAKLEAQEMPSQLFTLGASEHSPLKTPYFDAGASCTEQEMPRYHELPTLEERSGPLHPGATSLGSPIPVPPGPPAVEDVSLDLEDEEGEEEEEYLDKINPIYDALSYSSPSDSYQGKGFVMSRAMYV
# UniProt Q9UFN0: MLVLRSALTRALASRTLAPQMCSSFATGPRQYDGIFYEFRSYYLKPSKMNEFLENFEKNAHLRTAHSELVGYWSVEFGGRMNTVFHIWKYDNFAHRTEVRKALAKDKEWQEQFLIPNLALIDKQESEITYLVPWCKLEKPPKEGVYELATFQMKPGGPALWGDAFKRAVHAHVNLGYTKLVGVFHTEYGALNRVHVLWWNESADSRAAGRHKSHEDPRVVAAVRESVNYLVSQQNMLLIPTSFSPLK
# UniProt Q6ZNB6: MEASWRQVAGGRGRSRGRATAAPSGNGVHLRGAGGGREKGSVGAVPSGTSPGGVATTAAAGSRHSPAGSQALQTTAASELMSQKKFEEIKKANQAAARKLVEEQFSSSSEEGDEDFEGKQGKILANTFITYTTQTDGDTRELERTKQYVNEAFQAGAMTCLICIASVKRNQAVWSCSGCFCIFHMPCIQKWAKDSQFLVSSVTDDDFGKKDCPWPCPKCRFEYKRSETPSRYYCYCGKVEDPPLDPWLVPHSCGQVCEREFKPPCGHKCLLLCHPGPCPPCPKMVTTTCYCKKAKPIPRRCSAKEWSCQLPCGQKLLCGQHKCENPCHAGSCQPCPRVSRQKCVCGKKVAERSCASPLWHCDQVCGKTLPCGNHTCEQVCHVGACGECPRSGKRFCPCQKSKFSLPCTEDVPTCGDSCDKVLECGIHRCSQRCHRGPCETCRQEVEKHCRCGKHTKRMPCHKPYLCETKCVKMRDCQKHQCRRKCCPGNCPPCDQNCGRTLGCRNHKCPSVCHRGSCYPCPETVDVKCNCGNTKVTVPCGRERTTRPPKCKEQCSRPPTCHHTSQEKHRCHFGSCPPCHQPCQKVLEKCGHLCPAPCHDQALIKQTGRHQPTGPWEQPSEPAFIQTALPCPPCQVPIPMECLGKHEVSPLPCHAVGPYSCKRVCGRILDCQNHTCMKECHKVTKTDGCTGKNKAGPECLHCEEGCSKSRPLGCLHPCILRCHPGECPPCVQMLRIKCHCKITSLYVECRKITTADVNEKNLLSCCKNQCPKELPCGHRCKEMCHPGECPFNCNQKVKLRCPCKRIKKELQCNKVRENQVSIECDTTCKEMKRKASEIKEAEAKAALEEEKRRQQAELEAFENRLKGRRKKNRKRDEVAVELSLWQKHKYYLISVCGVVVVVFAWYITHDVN
# UniProt P56181: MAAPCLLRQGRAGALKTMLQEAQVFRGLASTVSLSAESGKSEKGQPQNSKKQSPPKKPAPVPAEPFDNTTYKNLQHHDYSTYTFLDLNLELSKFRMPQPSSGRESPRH
# UniProt P12036: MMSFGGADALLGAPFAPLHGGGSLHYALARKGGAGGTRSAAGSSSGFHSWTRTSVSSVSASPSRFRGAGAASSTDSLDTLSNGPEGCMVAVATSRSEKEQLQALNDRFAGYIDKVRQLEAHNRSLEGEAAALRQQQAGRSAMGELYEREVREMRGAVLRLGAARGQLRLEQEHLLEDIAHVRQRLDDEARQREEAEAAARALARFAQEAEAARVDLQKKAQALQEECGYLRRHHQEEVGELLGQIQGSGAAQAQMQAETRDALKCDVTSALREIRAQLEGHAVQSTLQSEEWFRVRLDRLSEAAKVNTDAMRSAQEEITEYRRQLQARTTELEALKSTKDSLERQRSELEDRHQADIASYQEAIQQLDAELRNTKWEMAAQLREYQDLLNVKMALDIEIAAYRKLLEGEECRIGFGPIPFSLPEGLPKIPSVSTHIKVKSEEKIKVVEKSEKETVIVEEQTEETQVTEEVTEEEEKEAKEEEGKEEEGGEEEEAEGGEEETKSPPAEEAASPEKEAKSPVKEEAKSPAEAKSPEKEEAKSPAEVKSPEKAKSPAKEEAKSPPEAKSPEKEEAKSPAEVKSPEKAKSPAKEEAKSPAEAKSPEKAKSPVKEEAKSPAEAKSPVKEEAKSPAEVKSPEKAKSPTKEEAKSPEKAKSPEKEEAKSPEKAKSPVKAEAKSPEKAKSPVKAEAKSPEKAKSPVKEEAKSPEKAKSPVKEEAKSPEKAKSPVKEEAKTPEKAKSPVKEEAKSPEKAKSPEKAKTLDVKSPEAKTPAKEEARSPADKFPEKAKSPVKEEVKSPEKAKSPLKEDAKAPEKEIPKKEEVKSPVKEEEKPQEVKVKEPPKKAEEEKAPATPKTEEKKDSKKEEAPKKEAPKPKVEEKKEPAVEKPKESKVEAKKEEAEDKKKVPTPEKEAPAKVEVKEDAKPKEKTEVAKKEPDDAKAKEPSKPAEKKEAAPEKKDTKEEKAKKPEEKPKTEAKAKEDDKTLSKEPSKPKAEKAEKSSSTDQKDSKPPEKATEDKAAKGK
# UniProt Q9P0J0, whole entry, looked up: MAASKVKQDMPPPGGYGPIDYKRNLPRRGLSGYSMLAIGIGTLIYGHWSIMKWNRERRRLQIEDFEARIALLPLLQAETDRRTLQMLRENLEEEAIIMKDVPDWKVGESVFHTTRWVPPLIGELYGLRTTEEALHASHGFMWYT
# UniProt O43678, whole entry, looked up: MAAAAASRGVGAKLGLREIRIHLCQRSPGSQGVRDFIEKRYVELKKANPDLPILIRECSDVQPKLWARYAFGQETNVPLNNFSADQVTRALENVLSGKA
# UniProt Q0ZGT2: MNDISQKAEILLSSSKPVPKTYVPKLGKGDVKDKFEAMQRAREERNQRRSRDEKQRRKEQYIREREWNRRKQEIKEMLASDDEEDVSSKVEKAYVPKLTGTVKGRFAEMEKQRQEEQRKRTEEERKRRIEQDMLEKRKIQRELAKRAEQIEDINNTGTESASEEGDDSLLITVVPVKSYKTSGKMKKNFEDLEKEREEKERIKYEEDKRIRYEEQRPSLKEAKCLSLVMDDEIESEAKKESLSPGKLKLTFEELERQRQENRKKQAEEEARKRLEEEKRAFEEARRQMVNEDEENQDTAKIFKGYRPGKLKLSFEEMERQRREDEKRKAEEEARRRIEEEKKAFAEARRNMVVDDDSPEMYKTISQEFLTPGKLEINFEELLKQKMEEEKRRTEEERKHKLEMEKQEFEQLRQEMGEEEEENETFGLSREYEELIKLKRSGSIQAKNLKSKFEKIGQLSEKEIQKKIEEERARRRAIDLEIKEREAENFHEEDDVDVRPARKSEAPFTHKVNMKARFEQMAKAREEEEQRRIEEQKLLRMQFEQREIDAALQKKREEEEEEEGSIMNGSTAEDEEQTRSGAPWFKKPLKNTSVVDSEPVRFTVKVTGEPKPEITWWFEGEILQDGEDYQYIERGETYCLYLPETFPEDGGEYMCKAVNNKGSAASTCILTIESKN
# UniProt Q9BYG3: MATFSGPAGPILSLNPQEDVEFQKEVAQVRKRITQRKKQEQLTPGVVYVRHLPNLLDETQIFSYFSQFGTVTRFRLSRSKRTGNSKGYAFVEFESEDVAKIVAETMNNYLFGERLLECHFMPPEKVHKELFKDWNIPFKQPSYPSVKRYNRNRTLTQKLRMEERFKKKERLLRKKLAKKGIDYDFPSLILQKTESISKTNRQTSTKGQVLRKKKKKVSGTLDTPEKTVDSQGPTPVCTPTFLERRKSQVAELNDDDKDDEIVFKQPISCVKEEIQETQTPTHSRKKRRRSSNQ
# UniProt O76041: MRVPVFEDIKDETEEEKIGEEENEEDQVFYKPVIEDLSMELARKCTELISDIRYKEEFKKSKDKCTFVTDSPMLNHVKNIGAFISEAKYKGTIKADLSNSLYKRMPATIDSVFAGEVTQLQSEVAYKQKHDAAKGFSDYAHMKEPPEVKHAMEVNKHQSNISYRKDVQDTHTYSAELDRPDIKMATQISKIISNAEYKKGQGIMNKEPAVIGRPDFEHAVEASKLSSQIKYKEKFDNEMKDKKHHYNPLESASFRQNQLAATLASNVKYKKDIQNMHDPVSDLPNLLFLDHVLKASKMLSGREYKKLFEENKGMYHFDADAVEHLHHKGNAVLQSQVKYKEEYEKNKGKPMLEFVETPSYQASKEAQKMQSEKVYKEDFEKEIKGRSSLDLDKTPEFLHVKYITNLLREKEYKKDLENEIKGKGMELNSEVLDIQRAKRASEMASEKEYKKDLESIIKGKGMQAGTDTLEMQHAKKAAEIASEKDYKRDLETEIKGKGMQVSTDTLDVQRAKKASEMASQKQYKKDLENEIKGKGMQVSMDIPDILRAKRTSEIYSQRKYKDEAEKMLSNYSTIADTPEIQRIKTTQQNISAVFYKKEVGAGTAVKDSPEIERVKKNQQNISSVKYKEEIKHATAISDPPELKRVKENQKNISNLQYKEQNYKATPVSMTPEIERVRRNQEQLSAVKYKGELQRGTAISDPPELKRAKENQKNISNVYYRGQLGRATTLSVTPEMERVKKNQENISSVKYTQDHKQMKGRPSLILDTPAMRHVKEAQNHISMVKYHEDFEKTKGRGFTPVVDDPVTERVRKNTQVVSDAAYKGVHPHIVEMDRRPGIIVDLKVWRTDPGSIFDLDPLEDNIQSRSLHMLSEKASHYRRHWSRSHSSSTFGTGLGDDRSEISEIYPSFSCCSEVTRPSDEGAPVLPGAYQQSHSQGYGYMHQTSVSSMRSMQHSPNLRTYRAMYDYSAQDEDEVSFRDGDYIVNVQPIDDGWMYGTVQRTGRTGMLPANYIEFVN
# UniProt P35240: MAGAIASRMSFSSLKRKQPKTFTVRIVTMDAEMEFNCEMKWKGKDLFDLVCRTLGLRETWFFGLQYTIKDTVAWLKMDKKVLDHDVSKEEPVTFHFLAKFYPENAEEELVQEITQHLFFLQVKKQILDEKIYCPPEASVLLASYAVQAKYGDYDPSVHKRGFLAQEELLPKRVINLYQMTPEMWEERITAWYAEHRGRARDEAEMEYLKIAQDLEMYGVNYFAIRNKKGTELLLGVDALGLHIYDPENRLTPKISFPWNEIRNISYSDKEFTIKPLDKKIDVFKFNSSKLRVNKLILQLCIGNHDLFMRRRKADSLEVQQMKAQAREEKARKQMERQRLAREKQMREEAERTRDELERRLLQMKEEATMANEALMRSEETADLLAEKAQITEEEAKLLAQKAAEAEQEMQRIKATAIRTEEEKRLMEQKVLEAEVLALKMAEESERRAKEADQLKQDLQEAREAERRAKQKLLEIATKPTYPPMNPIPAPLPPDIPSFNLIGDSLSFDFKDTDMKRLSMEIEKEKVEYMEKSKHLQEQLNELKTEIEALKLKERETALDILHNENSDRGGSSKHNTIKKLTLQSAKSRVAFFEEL
# UniProt Q9BYT8, whole entry, looked up: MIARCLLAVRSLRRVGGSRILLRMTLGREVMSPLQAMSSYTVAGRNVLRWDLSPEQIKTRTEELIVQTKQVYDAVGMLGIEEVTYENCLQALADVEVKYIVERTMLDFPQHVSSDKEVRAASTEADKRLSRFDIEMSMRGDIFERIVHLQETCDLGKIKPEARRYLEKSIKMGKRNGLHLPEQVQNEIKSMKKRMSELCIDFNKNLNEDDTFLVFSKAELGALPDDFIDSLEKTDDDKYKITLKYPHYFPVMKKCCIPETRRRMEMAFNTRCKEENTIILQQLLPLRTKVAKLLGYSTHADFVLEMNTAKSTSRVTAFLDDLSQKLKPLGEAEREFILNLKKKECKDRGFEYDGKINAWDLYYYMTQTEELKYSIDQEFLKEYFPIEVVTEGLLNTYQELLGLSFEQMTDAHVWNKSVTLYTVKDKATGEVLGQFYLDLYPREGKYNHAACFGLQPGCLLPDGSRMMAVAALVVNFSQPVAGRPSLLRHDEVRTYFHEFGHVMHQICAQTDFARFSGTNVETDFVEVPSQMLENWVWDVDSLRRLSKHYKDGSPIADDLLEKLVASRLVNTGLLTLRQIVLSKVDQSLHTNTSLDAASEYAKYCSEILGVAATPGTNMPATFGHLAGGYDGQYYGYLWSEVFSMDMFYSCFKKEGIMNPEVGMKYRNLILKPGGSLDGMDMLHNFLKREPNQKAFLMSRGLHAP
# UniProt Q9UI09, whole entry, looked up: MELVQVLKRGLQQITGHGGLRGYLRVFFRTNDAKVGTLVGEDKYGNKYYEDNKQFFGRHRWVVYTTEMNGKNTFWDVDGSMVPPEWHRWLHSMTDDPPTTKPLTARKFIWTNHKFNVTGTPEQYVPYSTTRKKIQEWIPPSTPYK
# This is one part of the list.
# What was measured:
# Assay in all cases: log2 fold change, soluble protein after heating vs DMSO (PISA); higher = thermal stabilisation; K562 lysate, 10 uM; active = over 0.2 and 3.5 SD of the protein, either way, in both replicates (recomputed)
# [1] = compound: CN1CC[C@H](c2c(O)cc(O)c3c(=O)cc(-c4ccccc4Cl)oc23)[C@H](O)C1 [alvocidib]
# Procedure, shortened: (§1)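 K562 pellets were dounce-homogenised in PBS pH 7.4 containing 1 mM MgCl2, and the crude extract, at 1 mg/mL protein, was exposed to 10 μM compound for 30 min. Aliquots were heated for 3 min across 48°C-58°C, pooled, brought to 0.5% NP-40 at 4°C and spun at 21,000xg for 90 min, with the supernatant taken as soluble protein. TMTpro 16plex LC-MS/MS with equalised channel sums quantified that protein. Values are log-two fold changes in thermal stability relative to solvent controls, taken from duplicates.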
# [2] = compound: CN1CCc2c(c3ccccc3n2Cc2ccc(C(=O)NO)cc2)C1 [Tubastatin A]
# Procedure, shortened: as §1
# [3] = compound: CNC(=O)C1=CC=CC=C1NC2=NC(=NC=C2Cl)NC3=C(C=C(C=C3)N4CCOCC4)OC
# Procedure, shortened: as §1
# [4] = compound: CNC(=O)c1ccc(Nc2ncc(C(F)(F)F)c(NCc3nccnc3N(C)S(C)(=O)=O)n2)cc1 [defactinib]
# Procedure, shortened: as §1
# [5] = compound: CNc1nc(-c2ccc3c(N)n[nH]c3c2)cc(N2C[C@@H](C(=O)NC3CCCCC3)CC[C@H]2C)n1
# Procedure, shortened: as §1
# [6] = compound: COC(=O)N[C@@H](C)CNc1nccc(-c2cn(C(C)C)nc2-c2cc(Cl)cc(NS(C)(=O)=O)c2F)n1 [encorafenib]
# Procedure, shortened: as §1
# [7] = compound: COC(=O)[C@H](CCSC)NC(=O)C1=C(C=C(C=C1)NC[C@H](CS)N)C2=CC=CC=C2
# Procedure, shortened: as §1
# [8] = compound: COc1cc(Nc2ncc3c(n2)-c2ccc(Cl)cc2C(c2c(F)cccc2OC)=NC3)ccc1C(=O)O [alisertib]
# Procedure, shortened: as §1
# [9] = compound: COc1cc2nc(-c3cc(F)ccc3O)nc(N[C@@H]3CNC[C@H]3C(C)(C)O)c2cc1OC
# Procedure, shortened: as §1
# [10] = compound: COc1cc2ncnc(Nc3ccc(F)c(Cl)c3)c2cc1OCCCN1CCOCC1 [gefitinib]
# Procedure, shortened: as §1
Target,log2 fold change [1],log2 fold change [2],log2 fold change [3],log2 fold change [4],log2 fold change [5],log2 fold change [6],log2 fold change [7],log2 fold change [8],log2 fold change [9],log2 fold change [10]
NIPA2 (UniProt Q8N8Q9),inactive: -0.187,inactive: -0.021,inactive: -0.112,inactive: -0.043,inactive: 0.074,inactive: -0.228,inactive: 0.336,inactive: 0.012,inactive: 0.005,inactive: 0.057
NDUFB3 (UniProt O43676),inactive: 0.069,inactive: -0.037,inactive: 0.007,inactive: 0,inactive: -0.014,inactive: -0.015,inactive: -0.044,inactive: 0.018,inactive: -0.012,inactive: -0.021
NIF3L1 (UniProt Q9GZT8),inactive: -0.056,inactive: 0.047,inactive: 0.005,inactive: 0.021,inactive: 0.062,inactive: 0.008,inactive: -0.034,inactive: -0.048,inactive: 0.012,inactive: 0.055
NECTIN2 isoform 2 (UniProt Q92692),inactive: 0,inactive: -0.035,inactive: -0.163,inactive: -0.191,inactive: -0.125,inactive: 0.014,inactive: -0.037,inactive: 0.033,inactive: 0.109,inactive: 0.085
NDUFB4 (UniProt O95168),inactive: 0.108,inactive: 0.043,inactive: -0.02,inactive: 0.016,inactive: 0.074,inactive: -0.013,inactive: 0.07,inactive: -0.027,inactive: 0.005,inactive: -0.057
NIPSNAP3A (UniProt Q9UFN0),active: 0.288,inactive: 0.015,inactive: 0.016,inactive: -0.021,inactive: 0.025,inactive: 0.016,inactive: -0.022,inactive: -0.023,inactive: 0.005,inactive: -0.023
NDUFB5 (UniProt O43674),inactive: 0.091,inactive: -0.026,inactive: -0.038,inactive: 0.016,inactive: 0.01,inactive: 0.014,inactive: -0.074,inactive: 0.002,inactive: -0.027,inactive: 0.005
NFXL1 (UniProt Q6ZNB6),inactive: -0.086,inactive: 0.009,inactive: -0.038,inactive: 0.042,inactive: 0.066,inactive: 0.013,inactive: -0.081,inactive: 0.023,inactive: -0.01,inactive: -0.124
NDUFV3 (UniProt P56181),inactive: 0.008,inactive: 0.033,inactive: 0.029,inactive: 0.002,inactive: 0.06,inactive: 0.106,inactive: -0.218,inactive: 0.108,inactive: 0.028,inactive: -0.126
NEFH (UniProt P12036),inactive: 0.046,inactive: -0.015,inactive: 0.011,inactive: -0.004,inactive: 0.036,inactive: 0.01,inactive: -0.139,inactive: 0.043,inactive: 0.072,inactive: -0.059
NDUFA13 (UniProt Q9P0J0),inactive: 0.019,inactive: 0.002,inactive: -0.003,inactive: -0.01,inactive: 0.062,inactive: -0.018,inactive: 0.015,inactive: 0.006,inactive: -0.002,inactive: -0.032
NECTIN2 (UniProt Q92692),inactive: 0.024,inactive: 0.048,inactive: -0.006,inactive: 0.029,inactive: -0.027,inactive: -0.032,inactive: -0.06,inactive: -0.029,inactive: 0.033,inactive: 0.006
NDUFB9 (UniProt Q9Y6M9),inactive: 0.069,inactive: 0.039,inactive: 0.004,inactive: -0.018,inactive: -0.01,inactive: -0.006,inactive: 0.02,inactive: -0.042,inactive: -0.049,inactive: -0.011
NDUFAF4 (UniProt Q9P032),inactive: 0.053,inactive: -0.008,inactive: -0.047,inactive: 0.011,inactive: -0.026,inactive: -0.015,inactive: -0.047,inactive: 0.023,inactive: -0.043,inactive: 0.006
NES (UniProt P48681),inactive: -0.008,inactive: 0.008,inactive: 0.023,inactive: 0.02,inactive: -0.046,inactive: 0.018,inactive: -0.137,inactive: -0.007,inactive: 0.025,inactive: 0.011
NDUFA2 (UniProt O43678),inactive: 0.063,inactive: 0.063,inactive: 0.04,inactive: 0.082,inactive: -0.022,inactive: -0.07,inactive: -0.01,inactive: 0.051,inactive: -0.013,inactive: -0.034
NDUFA8 (UniProt P51970),inactive: 0.017,inactive: 0.04,inactive: 0,inactive: -0.013,inactive: -0.005,inactive: -0.077,inactive: -0.142,inactive: -0.018,inactive: -0.046,inactive: 0.166
NDUFA5 (UniProt Q16718),inactive: 0.079,inactive: 0.085,inactive: 0.028,inactive: 0.099,inactive: 0.059,inactive: 0.019,inactive: -0.15,inactive: -0.001,inactive: -0.052,inactive: -0.157
NFE2 (UniProt Q16621),inactive: -0.017,inactive: -0.072,inactive: 0.002,inactive: 0.059,inactive: -0.013,inactive: 0.032,inactive: -0.093,inactive: -0.005,inactive: -0.006,inactive: 0.043
NEXN (UniProt Q0ZGT2),inactive: -0.102,inactive: -0.049,inactive: 0.026,inactive: 0.134,inactive: 0.158,inactive: -0.096,inactive: 0.044,inactive: 0.004,inactive: -0.086,inactive: 0.092
NFAT5 isoform 5 (UniProt O94916),inactive: -0.026,inactive: 0.003,inactive: -0.027,inactive: 0.007,inactive: 0.077,inactive: 0.043,inactive: -0.041,inactive: -0.072,inactive: -0.01,active: 0.454
NFATC3 (UniProt Q12968),inactive: -0.023,inactive: -0.093,inactive: 0.013,inactive: 0.022,inactive: 0.033,inactive: 0.067,inactive: 0.035,inactive: -0.004,inactive: -0.007,inactive: 0
NIFK (UniProt Q9BYG3),inactive: 0.009,inactive: -0.023,inactive: -0.023,inactive: 0,inactive: 0.095,inactive: 0.039,inactive: -0.003,inactive: -0.073,inactive: -0.014,inactive: 0.01
NEBL isoform 2 (UniProt O76041),inactive: -0.079,inactive: 0.07,inactive: 0.012,inactive: 0.011,inactive: 0.023,inactive: 0.009,inactive: -0.043,inactive: -0.024,inactive: -0.003,inactive: 0.037
NELFA (UniProt Q9H3P2),inactive: 0.036,inactive: -0.139,inactive: 0.022,inactive: 0.056,inactive: 0.051,inactive: 0,inactive: 0.025,inactive: 0.006,inactive: -0.006,inactive: -0.015
NF2 (UniProt P35240),inactive: -0.03,inactive: 0.042,inactive: 0.02,inactive: 0.047,inactive: 0.029,inactive: -0.054,inactive: -0.025,inactive: 0.004,inactive: 0.037,inactive: -0.002
NDUFS3 (UniProt O75489),inactive: 0.003,inactive: 0.022,inactive: -0.003,inactive: 0.034,inactive: -0.014,inactive: -0.015,inactive: -0.034,inactive: 0.009,inactive: -0.018,inactive: -0.017
NLN (UniProt Q9BYT8),inactive: 0.038,inactive: 0.046,inactive: 0.003,inactive: -0.009,inactive: -0.002,inactive: 0.006,inactive: 0.045,inactive: 0.013,inactive: 0.011,inactive: -0.009
NDUFA12 (UniProt Q9UI09),inactive: -0.043,inactive: 0.033,inactive: 0.022,inactive: 0.01,inactive: -0.012,inactive: -0.02,inactive: 0.067,inactive: -0.069,inactive: -0.079,inactive: 0.056

# For reference, some entries already given.
Target,log2 fold change [1],log2 fold change [2],log2 fold change [3],log2 fold change [4],log2 fold change [5],log2 fold change [6],log2 fold change [7],log2 fold change [8],log2 fold change [9],log2 fold change [10]
NF2 (UniProt P35240),inactive: -0.03,inactive: 0.042,inactive: 0.02,inactive: 0.047,inactive: 0.029,inactive: -0.054,inactive: -0.025,inactive: 0.004,inactive: 0.037,inactive: -0.002
NDUFS3 (UniProt O75489),inactive: 0.003,inactive: 0.022,inactive: -0.003,inactive: 0.034,inactive: -0.014,inactive: -0.015,inactive: -0.034,inactive: 0.009,inactive: -0.018,inactive: -0.017
